Experimental data taken from PubChem BioAssay AID540256 (National Center for Advancing Translational Sciences (NCATS), 2011).
Screen size: about 300,000 compounds; about 3,700 (1.2%) were called active. The inconclusive results got no clear call from the source; some entries with a clear call stand among them for comparison. Calls come from the whole dose curve; tested in HEK293 cells. A potency beside an inconclusive call is a rough fit, not a confirmed value.

Test: qHTS for Inhibitors of binding or entry into cells for Lassa Virus; note: nearly all actives have a fitted effect of over 50% in size
Settings: Lassa virus pseudotype entry inhibition, cell reporter; activity change, negative = inhibition: at 37.9 µM (top of the series) unless noted
% is set by controls: 0 for no effect and ±100 for the full control effect; potency is the fitted concentration of half-maximal effect.

Structure (SMILES)	activity change, negative = inhibition	Potency
Cc1ccc2c(c1)C(=C(C#N)C#N)CCN2	inactive: 16.2%	
O=C(O)C1CCCCN1C(=O)c1ccc(S(=O)(=O)N2CCCC2)cc1 (stereo not given)		inconclusive: 5.62 µM [activator, full curve, poor fit]
Clc1ccc(OCCCN2CCCCC2)c(Br)c1		inconclusive: 7.31 µM [inhibitor, partial curve, poor fit]
Cc1ccccc1N1C(=O)CC(=O)N(c2ccccc2C)C1=O		inconclusive: 0.58 µM [inhibitor, partial curve, poor fit]
COc1cccc(OCC(=O)N2CCCc3ccccc32)c1	inactive: 16% [at 46.1 µM]	
CCc1ccc(-n2nc(C)c3c(C(=O)Nc4ccc(Cl)cc4)cc(C)nc32)cc1		inconclusive: 35.5 µM [activator, single point]
CC(=O)C1=C(C)Nc2ncnn2C1c1ccccc1OCc1ccccc1 (stereo not given)	inactive: 0.0683%	
CCOC(=O)CN(Cc1ccccc1)S(=O)(=O)c1ccc(NC(C)=O)cc1		inconclusive: 9.2 µM [inhibitor, partial curve]
CCC(=O)N1c2ccccc2CC1C(=O)NCCc1ccccc1OC (stereo not given)		inconclusive: 6.31 µM [activator, full curve, poor fit]
CCN1C(=O)/C(=C2/Sc3ccc(OC)cc3N2C)SC1=Nc1ccc(OC)cc1		inconclusive: 0.316 µM [inhibitor, full curve, poor fit]
CC(=O)c1cccc(NC(=O)NCc2ccccn2)c1		inconclusive: 29.1 µM [inhibitor, single point]
Cc1ccc(NC(=O)CNC(=O)c2ccc(C)s2)nc1		inconclusive: 3.16 µM [inhibitor, single point]
CCCOc1ccccc1C(=O)N1CCCCC1CCN1CCCCC1 (stereo not given)	inactive: 5.72% [at 46.1 µM]	
C/C(=N\NC(=O)c1cc2ccccc2cc1O)c1ccccn1		inconclusive: 3.16 µM [inhibitor, full curve, poor fit]
O=C1/C(=C\c2ccccc2)CCc2c1[nH]c1ccccc21		inconclusive: 10.3 µM [inhibitor, partial curve, poor fit]
Cc1ccc(C)c(N(C(=O)Cn2nnc3ccccc32)C(C(=O)NC(C)(C)C)c2ccsc2)c1 (stereo not given)	inactive: -2.29%	
N#Cc1nc(-c2ccccc2)oc1N1CCCCC1	inactive: 6.89%	
CC(=O)c1c(C)n([O-])c2cc(F)c(F)cc2[n+]1=O		inconclusive: 22.4 µM [inhibitor, single point]
CCc1ccc(NS(=O)(=O)c2cc(Br)cc3c2N(C(C)=O)CC3)cc1		inconclusive: 1 µM [inhibitor, full curve, poor fit]
C1CCC(C(CC2CCCCN2)C2CCCCC2)CC1 (stereo not given)		active: 18.4 µM
C/C(=N\NC(=O)CN1CCCCC1)c1ccccc1O	inactive: -14.8% [at 46.1 µM]	
O=C(CCNc1ccc(F)cc1)c1ccco1	inactive: 0.366%	
N#Cc1cccc(NC(=O)COC(=O)c2ccc[n+]([O-])c2)c1		inconclusive: 15.8 µM [activator, single point]

Structure (SMILES)	activity change, negative = inhibition	Potency
Cc1ccc(-n2nc(C(=O)NCc3ccc(C)o3)c3c4ccccc4n(C)c3c2=O)cc1		inconclusive: 1.3 µM [inhibitor, full curve, poor fit]
COc1ccc(-c2cc(C(=O)N3CCN(c4cccc(C)c4C)CC3)c3ccccc3n2)cc1OC		inconclusive: 2 µM [inhibitor, full curve, poor fit]
O=C(CCc1ccccc1)Nc1ccccc1C(=O)NCc1ccco1		inconclusive: 6.51 µM [inhibitor, partial curve]
Cc1cc(C(=O)OCC(=O)Nc2ccccc2C#N)c(C)o1	inactive: 6.36%	
O=C(CSc1nc2ccccc2[nH]1)c1cccs1		inconclusive: 0.73 µM [activator, full curve]
O=S(=O)(c1cccs1)N1CCN(CCc2ccccc2)CC1		inconclusive: 35.5 µM [inhibitor, single point]
BrC(=C\c1ccccc1)/C=N/N1CCN(c2ccccc2)CC1		inconclusive: 35.5 µM [inhibitor, single point]
CCOC(=O)/C=C1/SCC(=O)N1Cc1ccc(Br)cc1		inconclusive: 35.5 µM [inhibitor, single point]
COc1ccc(S(=O)(=O)NCc2ccc(C(=O)N3CCN(c4ccccn4)CC3)cc2)cc1		inconclusive: 3.98 µM [inhibitor, partial curve, poor fit]
O=C(CSc1n[nH]c(-c2ccccn2)n1)Nc1ccc(Cl)cc1		inconclusive: 12.6 µM [inhibitor, single point]
Cc1ccc(O)c(C(=O)c2cnc3c(c2)c(=O)n(C)c(=O)n3C)c1	inactive: 12.5%	
COc1ccc(CNC(=O)C2Cc3cc(S(=O)(=O)N4CCCCCC4)ccc3N2C(C)=O)cc1 (stereo not given)	inactive: 26.2% [at 46.1 µM]	
Cc1ccccc1C(=O)NNC(=S)Nc1cccc(C(F)(F)F)c1		inconclusive: 35.5 µM [inhibitor, single point]
COC(=O)c1cccc(NC(=O)CCc2ccccc2)c1		inconclusive: 0.259 µM [inhibitor, partial curve, poor fit]
COc1ccc(-c2cc(C(=O)N3CCN(c4ccccc4OC)CC3)no2)cc1		inconclusive: 31.6 µM [inhibitor, single point]
O=C(NCc1nnc(SCc2ccc(C(F)(F)F)cc2)n1-c1ccccc1)C12CC3CC(CC(C3)C1)C2		inconclusive: 35.5 µM [inhibitor, single point]
O=C(OCC1CC(c2ccccc2)=NO1)c1ccc(Cl)cc1 (stereo not given)	inactive: 10.2%	
COc1ccccc1NC(=O)c1cc(Cl)nnc1Cl		inconclusive: 35.5 µM [inhibitor, single point]
Cc1csc(N2CCc3ccccc32)n1		inconclusive: 9.2 µM [activator, partial curve, poor fit]
CC(NC(=O)COC(=O)/C=C/c1ccco1)c1ccccc1 (stereo not given)	inactive: -9.19% [at 46.1 µM]	
COc1ccccc1Sc1nc(-c2ccccn2)ncc1OC		inconclusive: 35.5 µM [inhibitor, single point]
COc1ccc(CN(C)C(=O)c2ccc(COc3ccccc3)cc2)c(OC)c1		inconclusive: 28.2 µM [inhibitor, single point]

Single entries from the results shown:
Value of COc1ccc(-c2cc(C(=O)N3CCN(c4cccc(C)c4C)CC3)c3ccccc3n2)cc1OC under Potency: inconclusive: 2 µM [inhibitor, full curve, poor fit]
Value of O=C(CCc1ccccc1)Nc1ccccc1C(=O)NCc1ccco1 under Potency: inconclusive: 6.51 µM [inhibitor, partial curve]
Value of CC(NC(=O)COC(=O)/C=C/c1ccco1)c1ccccc1 (stereo not given) under activity change, negative = inhibition: inactive: -9.19% [at 46.1 µM]
Value of COc1ccc(CN(C)C(=O)c2ccc(COc3ccccc3)cc2)c(OC)c1 under Potency: inconclusive: 28.2 µM [inhibitor, single point]
